Data on 6 molecules can be found in paper PMC8184817, “Transmission of light signals from the light-oxygen-voltage core via the hydrophobic region of the β-sheet surface in aureochrome-1” (Scientific Reports, 2021).

The target of test [1] is Photozipper (PZ), N-terminally truncated aureochrome-1 of Vaucheria frigida, wild type (Vaucheria frigida) (UniProt A8QW55). The test can be described thus: SEC; dark (D) state: 8 or 50 µM protein incubated 20 min at 25 °C in the dark; Superdex 75 column, 400 mM NaCl, 20 mM Tris-HCl pH 7.0, 25 ± 1 °C, 0.5 mL/min; monomer to dimer; both purified. On the technique in general: Size exclusion chromatography separates by hydrodynamic size, large species first.

For test [2], the target named is Photozipper (PZ) L303A mutant (Vaucheria frigida) (UniProt A8QW55). The test is described as follows: dynamic light scattering (DLS); dark (D) state: 30-60 µM protein, 25 °C, hydrodynamic radius extrapolated to 0 µM protein; monomer to dimer; both purified.
For test [3], the target named is Photozipper (PZ) Q216A mutant (Vaucheria frigida) (UniProt A8QW55). The test is described as above.
Test [4] concerns the target Photozipper (PZ) F299V mutant (Vaucheria frigida) (UniProt A8QW55). The description is as above.
Test [5] addresses Photozipper (PZ) Q217A mutant (Vaucheria frigida) (UniProt A8QW55). The description is as above.
The target of test [6] is Photozipper (PZ) N218A mutant (Vaucheria frigida) (UniProt A8QW55). The description is as above.
Test [7] has the same target. The test is described as follows: SEC; dark (D) state: 8 or 50 µM protein incubated 20 min at 25 °C in the dark; Superdex 75 column, 400 mM NaCl, 20 mM Tris-HCl pH 7.0, 25 ± 1 °C, 0.5 mL/min; monomer to dimer; both purified.

These are yes or no findings as the source states them, for the method shown.

B1: Photozipper (PZ), N-terminally truncated aureochrome-1 of Vaucheria frigida, wild type (domain or fragment, UniProt A8QW55 113-348, looked up)
chain: GSISSELTEAQKVERRERNREHAKRSRVRKKFLLESLQQSVNELNHENNSLKESIREHLGPRGDSLIAQSSPEADTLLTDNPSKANRILEDPDYSLVKALQMAQQNFVITDASLPDNPIVYASRGFLTLTGYSLDQILGRNCRFLQGPETDPRAVDKIRNAITKGVDTSVCLLNYRQDGTTFWNLFFVAGLRDSKGNIVNYVGVQSKVSEDYAKLLVNEQNIEYKGVRTSNMLRRK
notes: aureochrome-1 of Vaucheria frigida (VfAUREO1), G113-K348 with C162S and C182S, encoded by the synthetic gene opZL; holds the bZIP and LOV domains; in the light (L) state FMN forms a covalent adduct with a conserved cysteine; also called wtPZ; source: recombinant protein
For the molecule B1, the binding entry in test [1] was “no binding (condition: in the dark (D state); 8 or 50 µM)”.

B2: Photozipper (PZ) L303A mutant (domain or fragment, Vaucheria frigida, UniProt A8QW55 113-348, looked up)
chain: GSISSELTEAQKVERRERNREHAKRSRVRKKFLLESLQQSVNELNHENNSLKESIREHLGPRGDSLIAQSSPEADTLLTDNPSKANRILEDPDYSLVKALQMAQQNFVITDASLPDNPIVYASRGFLTLTGYSLDQILGRNCRFLQGPETDPRAVDKIRNAITKGVDTSVCLLNYRQDGTTFWNLFFVAGARDSKGNIVNYVGVQSKVSEDYAKLLVNEQNIEYKGVRTSNMLRRK
notes: aureochrome-1 of Vaucheria frigida (VfAUREO1), G113-K348 with C162S and C182S (opZL gene), plus L303A; also called β-sheet mutant
B2: in test [2], the binding entry is on record as “no binding (condition: in the dark (D state); 30–60 µM)”.

B3: Photozipper (PZ) Q216A mutant (domain or fragment, Vaucheria frigida, UniProt A8QW55 113-348, looked up)
chain: GSISSELTEAQKVERRERNREHAKRSRVRKKFLLESLQQSVNELNHENNSLKESIREHLGPRGDSLIAQSSPEADTLLTDNPSKANRILEDPDYSLVKALQMAAQNFVITDASLPDNPIVYASRGFLTLTGYSLDQILGRNCRFLQGPETDPRAVDKIRNAITKGVDTSVCLLNYRQDGTTFWNLFFVAGLRDSKGNIVNYVGVQSKVSEDYAKLLVNEQNIEYKGVRTSNMLRRK
notes: aureochrome-1 of Vaucheria frigida (VfAUREO1), G113-K348 with C162S and C182S (opZL gene), plus Q216A; also called hinge mutant
Regarding B3, in test [3], the binding result is reported as “no binding (condition: in the dark (D state); 30–60 µM)”.

B4: Photozipper (PZ) F299V mutant (domain or fragment, Vaucheria frigida, UniProt A8QW55 113-348, looked up)
chain: GSISSELTEAQKVERRERNREHAKRSRVRKKFLLESLQQSVNELNHENNSLKESIREHLGPRGDSLIAQSSPEADTLLTDNPSKANRILEDPDYSLVKALQMAQQNFVITDASLPDNPIVYASRGFLTLTGYSLDQILGRNCRFLQGPETDPRAVDKIRNAITKGVDTSVCLLNYRQDGTTFWNLFVVAGLRDSKGNIVNYVGVQSKVSEDYAKLLVNEQNIEYKGVRTSNMLRRK
notes: aureochrome-1 of Vaucheria frigida (VfAUREO1), G113-K348 with C162S and C182S (opZL gene), plus F299V; also called β-sheet mutant
B4: the binding entry in test [4] was “no binding (condition: in the dark (D state); 30–60 µM)”.

B5: Photozipper (PZ) Q217A mutant (domain or fragment, Vaucheria frigida, UniProt A8QW55 113-348, looked up)
chain: GSISSELTEAQKVERRERNREHAKRSRVRKKFLLESLQQSVNELNHENNSLKESIREHLGPRGDSLIAQSSPEADTLLTDNPSKANRILEDPDYSLVKALQMAQANFVITDASLPDNPIVYASRGFLTLTGYSLDQILGRNCRFLQGPETDPRAVDKIRNAITKGVDTSVCLLNYRQDGTTFWNLFFVAGLRDSKGNIVNYVGVQSKVSEDYAKLLVNEQNIEYKGVRTSNMLRRK
notes: aureochrome-1 of Vaucheria frigida (VfAUREO1), G113-K348 with C162S and C182S (opZL gene), plus Q217A; also called hinge mutant
Take B5: in test [5], the binding result is “no binding (condition: in the dark (D state); 30–60 µM)”.

B6: Photozipper (PZ) N218A mutant (domain or fragment, Vaucheria frigida, UniProt A8QW55 113-348, looked up)
chain: GSISSELTEAQKVERRERNREHAKRSRVRKKFLLESLQQSVNELNHENNSLKESIREHLGPRGDSLIAQSSPEADTLLTDNPSKANRILEDPDYSLVKALQMAQQAFVITDASLPDNPIVYASRGFLTLTGYSLDQILGRNCRFLQGPETDPRAVDKIRNAITKGVDTSVCLLNYRQDGTTFWNLFFVAGLRDSKGNIVNYVGVQSKVSEDYAKLLVNEQNIEYKGVRTSNMLRRK
notes: aureochrome-1 of Vaucheria frigida (VfAUREO1), G113-K348 with C162S and C182S (opZL gene), plus N218A; also called hinge mutant
Consider B6, for which the binding entry in test [6] is recorded as “no binding (condition: in the dark (D state); 30–60 µM)”; in test [7], “no binding (condition: in the dark (D state); 8 or 50 µM)”.
